The target of this experiment is T1, bovine Cytokeratin 18 nat (bovine) (UniProt F6S1Q0).
T1 sequence: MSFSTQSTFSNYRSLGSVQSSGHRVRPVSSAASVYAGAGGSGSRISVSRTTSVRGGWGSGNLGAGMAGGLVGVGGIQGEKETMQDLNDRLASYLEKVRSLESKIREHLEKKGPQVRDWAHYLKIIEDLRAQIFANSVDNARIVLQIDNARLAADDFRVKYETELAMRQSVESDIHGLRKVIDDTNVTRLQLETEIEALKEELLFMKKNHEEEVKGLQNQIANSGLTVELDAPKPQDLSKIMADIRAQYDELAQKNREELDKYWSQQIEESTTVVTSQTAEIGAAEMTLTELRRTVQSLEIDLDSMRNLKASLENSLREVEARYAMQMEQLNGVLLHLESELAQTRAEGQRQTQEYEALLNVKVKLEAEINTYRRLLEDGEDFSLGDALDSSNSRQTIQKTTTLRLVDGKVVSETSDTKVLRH
Briefly: far-Western, overlay or dot blot; proteins separated by SDS-PAGE and transferred to PVDF, blocked with 0.2% Tween 20 in PBS; incubated with recombinant or native protein at 1–2 µg per ml for 30 min in 10 mM phosphate buffer pH 7.4, 0.05% Triton X-100, room temperature; detected with monoclonal antibody, HRP secondary antibody and ECL; both purified.

Results are given in words; binding and its absence hold for the method and conditions named. Some entries that bind do so weakly or less than the wild type.

B1: TIP47-rec (protein, UniProt O60664 1-434)
chain: MSADGAEADGSTQVTVEEPVQQPSVVDRVASMPLISSTCDMVSAAYASTKESYPHIKTVCDAAEKGVRTLTAAAVSGAQPILSKLEPQIASASEYAHRGLDKLEENLPILQQPTEKVLADTKELVSSKVSGAQEMVSSAKDTVATQLSEAVDATRGAVQSGVDKTKSVVTGGVQSVMGSRLGQMVLSGVDTVLGKSEEWADNHLPLTDAELARIATSLDGFDVASVQQQRQEQSYFVRLGSLSERLRQHAYEHSLGKLRATKQRAQEALLQLSQVLSLMETVKQGVDQKLVEGQEKLHQMWLSWNQKQLQGPEKEPPKPEQVESRALTMFRDIAQQLQATCTSLGSSIQGLPTNVKDQVQQARRQVEDLQATFSSIHSFQDLSSSILAQSRERVASAREALDHMVEYVAQNTPVTWLVGPFAPGITEKAPEEKK
In the case of B1, the binding entry was “binds”.

For the origin of these results see PMC3660578.
